Measurements as given in ChEMBL document CHEMBL1795257, “Synthesis of new opioid derivatives with a propellane skeleton and their pharmacology: part 1” (Bioorg Med Chem Lett, 2011).

Assay: Displacement of [3H]NTI from delta opioid receptor in guinea pig forebrain homogenate by scintillation counting
Assay type: tissue-based, Cavia porcellus, Brain

Q: For `CN1CC[C@]23c4c5ccc(O)c4O[C@H]2[C@@H](O)C=C[C@H]3[C@H]1C5` [MORPHINE], which Ki is on record?
A: Its Ki is 140 nM.
